No constants are given. Whether binding was seen depends on the method and setting. In cells and extracts the contact can be indirect. Some entries that bind do so weakly or less than the wild type.
Legend:
[1] = biological target: T1, Sse1 (S. cerevisiae (endogenous in yeast extract)) (UniProt P32589); test: cross-linking; BS3 on isolated ribosomes of the Ssb1* strain (legend; the text says cell extract); sample separated into cytosolic supernatant and ribosomal pellet on a low-salt sucrose cushion; immunoblot with αSsb
T1 sequence: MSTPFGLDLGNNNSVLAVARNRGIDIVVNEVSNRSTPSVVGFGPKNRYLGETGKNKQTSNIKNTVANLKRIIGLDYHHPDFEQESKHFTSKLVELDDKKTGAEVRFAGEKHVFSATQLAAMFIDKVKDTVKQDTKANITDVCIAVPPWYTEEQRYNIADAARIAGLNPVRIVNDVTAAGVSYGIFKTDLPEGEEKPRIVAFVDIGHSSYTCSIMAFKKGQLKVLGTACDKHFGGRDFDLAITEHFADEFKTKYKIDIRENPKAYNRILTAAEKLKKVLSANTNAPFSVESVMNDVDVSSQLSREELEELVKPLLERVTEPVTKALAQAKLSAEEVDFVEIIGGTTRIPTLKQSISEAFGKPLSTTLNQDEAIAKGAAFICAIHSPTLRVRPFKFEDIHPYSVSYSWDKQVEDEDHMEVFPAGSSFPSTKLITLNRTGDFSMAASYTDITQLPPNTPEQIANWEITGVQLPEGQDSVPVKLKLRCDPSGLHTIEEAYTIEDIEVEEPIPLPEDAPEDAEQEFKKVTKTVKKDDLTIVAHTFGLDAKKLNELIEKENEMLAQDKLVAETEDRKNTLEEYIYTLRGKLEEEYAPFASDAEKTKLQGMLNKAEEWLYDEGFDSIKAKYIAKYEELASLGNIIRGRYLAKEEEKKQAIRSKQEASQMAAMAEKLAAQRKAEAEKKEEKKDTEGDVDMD

The chains behind the UniProt entries cited, without tags or fusion partners. Where a name states a change or a piece, a line headed by the entry shows the natural chain unless it says otherwise.
UniProt P0CX82: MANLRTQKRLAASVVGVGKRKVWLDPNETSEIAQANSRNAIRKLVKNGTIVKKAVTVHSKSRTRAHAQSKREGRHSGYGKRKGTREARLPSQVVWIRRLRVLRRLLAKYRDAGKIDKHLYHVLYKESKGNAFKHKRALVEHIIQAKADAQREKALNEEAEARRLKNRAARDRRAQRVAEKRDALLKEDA
UniProt P04650: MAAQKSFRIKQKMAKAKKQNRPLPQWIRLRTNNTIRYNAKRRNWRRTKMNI
UniProt P11484: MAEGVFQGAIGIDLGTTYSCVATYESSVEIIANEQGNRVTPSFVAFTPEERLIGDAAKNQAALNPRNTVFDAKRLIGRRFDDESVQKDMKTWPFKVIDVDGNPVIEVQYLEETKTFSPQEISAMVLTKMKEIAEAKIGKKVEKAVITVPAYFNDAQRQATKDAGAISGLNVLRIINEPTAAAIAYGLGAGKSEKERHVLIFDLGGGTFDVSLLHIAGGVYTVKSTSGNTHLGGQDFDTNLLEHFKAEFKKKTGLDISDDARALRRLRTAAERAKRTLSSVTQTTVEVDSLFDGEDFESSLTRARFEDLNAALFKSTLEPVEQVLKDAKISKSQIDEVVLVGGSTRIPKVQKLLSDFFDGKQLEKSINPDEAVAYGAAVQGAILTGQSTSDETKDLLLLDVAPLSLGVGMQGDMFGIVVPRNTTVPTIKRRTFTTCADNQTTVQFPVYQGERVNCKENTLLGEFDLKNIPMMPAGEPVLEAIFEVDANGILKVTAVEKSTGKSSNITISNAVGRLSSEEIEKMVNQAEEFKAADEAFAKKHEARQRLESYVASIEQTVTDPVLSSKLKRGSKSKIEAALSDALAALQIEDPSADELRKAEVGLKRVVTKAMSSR

[2] = biological target: Rpl19 (S. cerevisiae (endogenous in yeast extract)) (UniProt P0CX82); test: cross-linking; 1.2 mM BS3, 20 min, 21 °C, in total cell extract (20 mM Hepes/KOH pH 7.4, 80 mM potassium acetate, 2 mM magnesium acetate); ribosomes pelleted; immunoblots with antibodies against ribosomal proteins; compared with a Δssb1Δssb2 extract
[3] = biological target: T2, Rpl35 (S. cerevisiae (endogenous in yeast extract)) (UniProt P0CX84); test: as above
T2 sequence: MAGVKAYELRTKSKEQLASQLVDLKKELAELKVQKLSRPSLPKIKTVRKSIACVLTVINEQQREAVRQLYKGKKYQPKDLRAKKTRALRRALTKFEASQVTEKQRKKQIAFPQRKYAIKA

[4] = biological target: Rpl39 (S. cerevisiae (endogenous in yeast extract)) (UniProt P04650); test: as above

Measured: binding

Ssb1-A577K (Ssb1*) (from UniProt P11484 1-613)
binds: [1] | [2] | [3] | [4]

— article PMC5123055
